Test results as given in publication PMC7504817 (Molecules, 2020).
[ ]: non-standard residue; d: D form.

Assay: general procedure: peptide synthesis; 2-chlorotrityl chloride resin; HATU/DIEA (cyclization)
Details: cyclisation step; for cyclisation yield: on linear precursor

Question: What does the source list for “cyclo([dF][dP]F[dW]) (SMILES O=C1N[C@H](Cc2c[nH]c3ccccc23)C(=O)N[C@H](Cc2ccccc2)C(=O)N2CCC[C@@H]2C(=O)N[C@H]1Cc1ccccc1)”?
Answer: cyclisation yield: 45%; final HPLC purity (system A, 214 nm): 94%; final HPLC purity (system B, 230 nm): 96%

Question: For “cyclo([dF][dP]FW) (SMILES O=C1N[C@H](Cc2ccccc2)C(=O)N2CCC[C@@H]2C(=O)N[C@@H](Cc2ccccc2)C(=O)N[C@H]1Cc1c[nH]c2ccccc12)”, which cyclisation yield is on record?
Answer: 34%

Question: Which cyclisation yield does the source give for “cyclo(F[dP][dF]W) (SMILES O=C1N[C@@H](Cc2ccccc2)C(=O)N2CCC[C@@H]2C(=O)N[C@H](Cc2ccccc2)C(=O)N[C@H]1Cc1c[nH]c2ccccc12)” here?
Answer: 43%

Question: Which cyclisation yield does the source give for “cyclo([dF][dP][dF]W) (SMILES O=C1N[C@H](Cc2ccccc2)C(=O)N2CCC[C@@H]2C(=O)N[C@H](Cc2ccccc2)C(=O)N[C@H]1Cc1c[nH]c2ccccc12)” here?
Answer: 50%

Question: With “cyclo(F[dP][dF][dW]) (SMILES O=C1N[C@H](Cc2ccccc2)C(=O)N[C@H](Cc2c[nH]c3ccccc23)C(=O)N[C@@H](Cc2ccccc2)C(=O)N2CCC[C@H]12)” as the substance, how does the cyclisation yield read?
Answer: 48%
